The supplement of paper PMC12823440, “Inhibitors supercharge kinase turnover through native proteolytic circuits” (Nature, 2025)
This is one part of the list. Hit calls seldom repeat between salt and free forms of one compound.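 Kinases, fused to nanoluciferase, were expressed in K562 cells; luminescence was measured every 4 h from 2 to 18 h as percent of control (DMSO = 100%, positive control = 0%). A time point is decreased if signal falls significantly (2 sigma). Hits were called by the authors by a rule that is not shown; the count of time points alone does not decide it.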

Protein sequences, listed by entry. Tags and fused reporters are not part of them. Lines headed by an entry give the natural chain unless they say otherwise; changes in a name come on top.
UniProt Q9UQM7, whole entry: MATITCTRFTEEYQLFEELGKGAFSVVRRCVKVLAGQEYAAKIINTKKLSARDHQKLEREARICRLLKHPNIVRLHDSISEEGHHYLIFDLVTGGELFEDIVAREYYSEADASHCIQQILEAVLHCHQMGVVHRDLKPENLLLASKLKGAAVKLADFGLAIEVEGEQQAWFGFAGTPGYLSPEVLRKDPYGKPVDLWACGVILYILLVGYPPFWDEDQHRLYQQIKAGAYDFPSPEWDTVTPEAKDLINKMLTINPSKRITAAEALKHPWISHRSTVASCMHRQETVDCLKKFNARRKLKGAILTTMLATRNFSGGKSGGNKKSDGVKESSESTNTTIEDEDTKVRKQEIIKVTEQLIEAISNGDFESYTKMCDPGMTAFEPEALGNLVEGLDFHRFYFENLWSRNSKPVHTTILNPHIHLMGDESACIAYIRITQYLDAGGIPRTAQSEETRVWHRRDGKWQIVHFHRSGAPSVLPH
UniProt Q13555: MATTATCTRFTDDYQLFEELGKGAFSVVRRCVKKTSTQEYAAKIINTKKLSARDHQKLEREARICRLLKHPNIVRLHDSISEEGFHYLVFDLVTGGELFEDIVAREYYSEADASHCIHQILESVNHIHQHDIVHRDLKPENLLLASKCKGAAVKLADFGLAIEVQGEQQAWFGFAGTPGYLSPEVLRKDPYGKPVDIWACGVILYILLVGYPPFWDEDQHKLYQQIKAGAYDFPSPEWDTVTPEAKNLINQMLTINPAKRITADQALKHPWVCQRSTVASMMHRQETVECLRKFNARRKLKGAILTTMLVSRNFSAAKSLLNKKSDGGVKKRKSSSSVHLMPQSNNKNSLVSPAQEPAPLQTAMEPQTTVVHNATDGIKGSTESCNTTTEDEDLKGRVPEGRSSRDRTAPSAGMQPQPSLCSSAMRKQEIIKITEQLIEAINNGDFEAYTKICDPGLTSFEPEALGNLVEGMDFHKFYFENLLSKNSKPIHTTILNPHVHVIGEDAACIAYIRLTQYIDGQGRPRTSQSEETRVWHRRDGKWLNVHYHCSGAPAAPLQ
UniProt Q00526: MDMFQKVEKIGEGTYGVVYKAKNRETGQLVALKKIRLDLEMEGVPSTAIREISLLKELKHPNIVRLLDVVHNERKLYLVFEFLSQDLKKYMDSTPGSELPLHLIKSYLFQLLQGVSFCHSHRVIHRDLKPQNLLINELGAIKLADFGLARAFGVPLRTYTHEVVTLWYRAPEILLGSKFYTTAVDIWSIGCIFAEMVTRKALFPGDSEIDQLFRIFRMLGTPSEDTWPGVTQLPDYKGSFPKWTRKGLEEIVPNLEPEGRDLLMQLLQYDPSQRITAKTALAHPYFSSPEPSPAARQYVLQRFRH
UniProt Q00535, whole entry, looked up: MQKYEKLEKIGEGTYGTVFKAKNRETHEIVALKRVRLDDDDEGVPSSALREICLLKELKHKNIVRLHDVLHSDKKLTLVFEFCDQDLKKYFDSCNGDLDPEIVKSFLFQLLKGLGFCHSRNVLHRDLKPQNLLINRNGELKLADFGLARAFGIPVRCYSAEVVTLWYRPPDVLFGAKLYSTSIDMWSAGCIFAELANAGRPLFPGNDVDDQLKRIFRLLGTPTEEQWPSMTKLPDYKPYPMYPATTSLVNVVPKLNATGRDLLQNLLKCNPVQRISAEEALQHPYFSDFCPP
UniProt Q00534, whole entry: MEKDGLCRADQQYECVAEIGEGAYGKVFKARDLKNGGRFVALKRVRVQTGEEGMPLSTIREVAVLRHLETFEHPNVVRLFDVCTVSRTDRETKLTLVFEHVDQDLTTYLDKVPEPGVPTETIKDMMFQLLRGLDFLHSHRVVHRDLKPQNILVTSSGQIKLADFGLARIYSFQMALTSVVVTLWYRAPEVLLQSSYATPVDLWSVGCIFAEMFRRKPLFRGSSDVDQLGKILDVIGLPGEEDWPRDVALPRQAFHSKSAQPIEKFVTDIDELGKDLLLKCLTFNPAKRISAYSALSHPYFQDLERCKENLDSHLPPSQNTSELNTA
UniProt O96017, whole entry: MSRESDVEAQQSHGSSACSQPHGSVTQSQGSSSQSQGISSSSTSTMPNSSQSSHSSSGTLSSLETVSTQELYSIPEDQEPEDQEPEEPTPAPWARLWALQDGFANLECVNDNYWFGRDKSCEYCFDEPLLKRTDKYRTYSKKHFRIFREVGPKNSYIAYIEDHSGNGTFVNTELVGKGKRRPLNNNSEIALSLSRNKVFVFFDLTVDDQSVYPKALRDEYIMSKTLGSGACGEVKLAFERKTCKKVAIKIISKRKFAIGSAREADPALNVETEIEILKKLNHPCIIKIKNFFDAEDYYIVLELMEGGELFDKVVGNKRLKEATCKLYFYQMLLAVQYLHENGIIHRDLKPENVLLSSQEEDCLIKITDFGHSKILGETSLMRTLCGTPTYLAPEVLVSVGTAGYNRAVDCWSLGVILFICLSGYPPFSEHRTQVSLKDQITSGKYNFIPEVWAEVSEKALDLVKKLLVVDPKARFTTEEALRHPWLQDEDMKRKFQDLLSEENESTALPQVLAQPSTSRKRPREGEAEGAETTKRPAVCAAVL
UniProt P07333, whole entry: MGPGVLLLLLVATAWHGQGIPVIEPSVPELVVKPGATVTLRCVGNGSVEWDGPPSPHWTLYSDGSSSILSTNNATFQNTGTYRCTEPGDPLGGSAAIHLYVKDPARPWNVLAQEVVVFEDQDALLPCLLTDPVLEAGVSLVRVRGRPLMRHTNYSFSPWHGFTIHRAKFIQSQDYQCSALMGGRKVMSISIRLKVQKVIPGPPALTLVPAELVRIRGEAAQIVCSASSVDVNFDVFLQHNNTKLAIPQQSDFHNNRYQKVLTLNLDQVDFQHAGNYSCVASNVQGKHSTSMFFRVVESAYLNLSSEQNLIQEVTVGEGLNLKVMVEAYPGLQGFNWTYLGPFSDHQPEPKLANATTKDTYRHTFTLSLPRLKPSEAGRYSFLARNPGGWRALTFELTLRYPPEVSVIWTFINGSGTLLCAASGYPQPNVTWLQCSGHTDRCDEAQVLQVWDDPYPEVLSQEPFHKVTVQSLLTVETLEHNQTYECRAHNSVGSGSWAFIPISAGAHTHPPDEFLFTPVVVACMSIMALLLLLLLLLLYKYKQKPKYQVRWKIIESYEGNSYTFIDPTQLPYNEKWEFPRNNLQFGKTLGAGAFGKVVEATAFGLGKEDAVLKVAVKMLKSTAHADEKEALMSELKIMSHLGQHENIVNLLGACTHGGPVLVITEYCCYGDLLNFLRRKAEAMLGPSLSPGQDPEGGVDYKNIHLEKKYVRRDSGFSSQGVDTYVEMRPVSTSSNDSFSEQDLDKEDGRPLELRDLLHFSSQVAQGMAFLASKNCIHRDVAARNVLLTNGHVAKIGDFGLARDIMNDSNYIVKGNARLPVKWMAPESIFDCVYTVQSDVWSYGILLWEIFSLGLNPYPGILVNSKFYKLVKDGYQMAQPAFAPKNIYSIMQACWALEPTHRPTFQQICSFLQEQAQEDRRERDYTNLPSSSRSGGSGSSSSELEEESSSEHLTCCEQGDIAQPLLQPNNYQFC
UniProt P48729: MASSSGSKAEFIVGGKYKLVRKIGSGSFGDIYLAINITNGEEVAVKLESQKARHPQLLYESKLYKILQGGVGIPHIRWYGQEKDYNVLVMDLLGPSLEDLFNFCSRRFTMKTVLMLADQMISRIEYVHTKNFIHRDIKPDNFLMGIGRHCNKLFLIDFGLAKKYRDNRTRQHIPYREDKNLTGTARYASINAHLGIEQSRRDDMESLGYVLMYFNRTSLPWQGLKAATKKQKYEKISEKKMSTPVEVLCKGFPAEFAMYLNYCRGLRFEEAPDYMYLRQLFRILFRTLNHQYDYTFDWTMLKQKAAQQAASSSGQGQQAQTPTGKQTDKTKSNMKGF
UniProt P48730: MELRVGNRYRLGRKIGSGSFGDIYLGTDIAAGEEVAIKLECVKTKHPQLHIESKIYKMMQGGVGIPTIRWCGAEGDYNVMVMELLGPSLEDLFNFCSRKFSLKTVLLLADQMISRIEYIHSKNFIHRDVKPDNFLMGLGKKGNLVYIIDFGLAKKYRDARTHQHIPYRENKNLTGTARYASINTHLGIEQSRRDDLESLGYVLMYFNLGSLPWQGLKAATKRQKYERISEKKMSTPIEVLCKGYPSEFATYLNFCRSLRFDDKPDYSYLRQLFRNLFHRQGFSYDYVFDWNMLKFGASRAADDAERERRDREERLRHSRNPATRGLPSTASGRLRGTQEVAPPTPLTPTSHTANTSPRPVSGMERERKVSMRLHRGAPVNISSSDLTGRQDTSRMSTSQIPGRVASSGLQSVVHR
UniProt Q08345: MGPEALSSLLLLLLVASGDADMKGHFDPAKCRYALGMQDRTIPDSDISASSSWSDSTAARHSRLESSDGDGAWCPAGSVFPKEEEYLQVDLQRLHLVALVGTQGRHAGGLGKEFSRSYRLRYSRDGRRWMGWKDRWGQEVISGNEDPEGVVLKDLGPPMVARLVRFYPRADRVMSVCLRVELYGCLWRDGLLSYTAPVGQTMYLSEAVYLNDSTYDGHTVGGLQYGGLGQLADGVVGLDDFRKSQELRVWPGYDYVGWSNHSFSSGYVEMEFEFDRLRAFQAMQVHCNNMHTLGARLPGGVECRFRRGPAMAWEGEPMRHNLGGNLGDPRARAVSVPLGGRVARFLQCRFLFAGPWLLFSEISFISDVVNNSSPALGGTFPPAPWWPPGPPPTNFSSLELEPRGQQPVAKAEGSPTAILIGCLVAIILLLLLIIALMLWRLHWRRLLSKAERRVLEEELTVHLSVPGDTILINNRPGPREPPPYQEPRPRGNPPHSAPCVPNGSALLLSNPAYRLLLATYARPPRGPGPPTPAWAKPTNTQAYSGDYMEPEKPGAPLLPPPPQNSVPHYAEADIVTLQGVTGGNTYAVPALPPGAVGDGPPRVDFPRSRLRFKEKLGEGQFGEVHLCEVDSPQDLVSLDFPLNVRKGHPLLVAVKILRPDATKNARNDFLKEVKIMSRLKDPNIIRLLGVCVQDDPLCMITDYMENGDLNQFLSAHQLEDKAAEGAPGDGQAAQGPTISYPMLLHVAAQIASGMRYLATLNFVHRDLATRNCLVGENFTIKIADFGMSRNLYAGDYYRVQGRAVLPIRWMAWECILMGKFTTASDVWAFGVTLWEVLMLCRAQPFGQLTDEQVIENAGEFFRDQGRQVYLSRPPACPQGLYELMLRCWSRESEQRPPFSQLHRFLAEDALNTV
UniProt Q9Y463, whole entry, looked up: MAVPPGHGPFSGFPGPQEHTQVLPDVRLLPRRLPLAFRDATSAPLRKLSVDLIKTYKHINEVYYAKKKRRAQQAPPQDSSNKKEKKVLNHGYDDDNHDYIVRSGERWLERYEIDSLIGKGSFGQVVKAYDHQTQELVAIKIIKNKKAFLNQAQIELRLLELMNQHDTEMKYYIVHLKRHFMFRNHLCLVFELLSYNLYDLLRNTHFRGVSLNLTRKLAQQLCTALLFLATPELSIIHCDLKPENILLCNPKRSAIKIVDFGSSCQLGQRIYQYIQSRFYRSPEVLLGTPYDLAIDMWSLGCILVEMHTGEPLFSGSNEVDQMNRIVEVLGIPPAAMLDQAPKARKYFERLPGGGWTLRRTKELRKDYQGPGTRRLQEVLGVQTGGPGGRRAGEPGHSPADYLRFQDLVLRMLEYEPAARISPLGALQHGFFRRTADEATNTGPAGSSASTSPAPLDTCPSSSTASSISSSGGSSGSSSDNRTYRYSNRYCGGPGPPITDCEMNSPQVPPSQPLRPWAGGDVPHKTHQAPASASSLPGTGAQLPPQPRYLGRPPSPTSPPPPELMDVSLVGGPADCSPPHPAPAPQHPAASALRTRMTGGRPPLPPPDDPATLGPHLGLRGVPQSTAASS
UniProt Q92630: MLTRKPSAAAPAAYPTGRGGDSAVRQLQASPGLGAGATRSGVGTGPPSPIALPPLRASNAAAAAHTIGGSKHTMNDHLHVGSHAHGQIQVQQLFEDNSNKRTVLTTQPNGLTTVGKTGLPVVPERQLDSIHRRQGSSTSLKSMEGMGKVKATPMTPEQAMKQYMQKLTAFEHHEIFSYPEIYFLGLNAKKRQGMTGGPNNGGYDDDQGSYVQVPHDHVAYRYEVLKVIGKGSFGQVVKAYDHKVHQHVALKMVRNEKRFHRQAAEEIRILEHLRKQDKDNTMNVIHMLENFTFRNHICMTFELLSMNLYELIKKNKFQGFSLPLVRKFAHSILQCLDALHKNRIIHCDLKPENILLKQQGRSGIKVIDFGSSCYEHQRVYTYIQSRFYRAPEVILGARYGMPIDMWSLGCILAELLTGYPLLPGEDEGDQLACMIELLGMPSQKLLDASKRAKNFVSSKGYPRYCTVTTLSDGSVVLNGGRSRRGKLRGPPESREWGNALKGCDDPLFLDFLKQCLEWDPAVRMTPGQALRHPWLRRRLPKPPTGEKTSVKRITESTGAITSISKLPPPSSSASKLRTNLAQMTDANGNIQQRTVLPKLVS

Assays:
Assay in all cases: number of time points (of 5) at which kinase-Nluc abundance scored as decreased, DMSO-normalised (count); higher = more persistent destabilization
Settings in all cases: K562; 2-18 h
CAMK2A = CAMK2A (UniProt Q9UQM7)
CAMK2G = CAMK2G (UniProt Q13555)
CDK10 = CDK10 (UniProt Q15131)
CDK2 = CDK2 (UniProt P24941)
CDK3 = CDK3 (UniProt Q00526)
CDK5 = CDK5 (UniProt Q00535)
CDK6 = CDK6 (UniProt Q00534)
CHEK2 = CHEK2 (UniProt O96017)
CSF1R = CSF1R (UniProt P07333)
CSK = CSK (UniProt P41240)
CSNK1A1 = CSNK1A1 (UniProt P48729)
CSNK1D = CSNK1D (UniProt P48730)
DDR1 = DDR1 (UniProt Q08345)
DYRK1B = DYRK1B (UniProt Q9Y463)
DYRK2 = DYRK2 (UniProt Q92630)
EGFR = EGFR (UniProt P00533)
EGFR_G719S = EGFR_G719S (UniProt P00533)
EGFR_G719S_T790M = EGFR_G719S_T790M (UniProt P00533)
EGFR_L718V = EGFR_L718V (UniProt P00533)
EGFR_L858R = EGFR_L858R (UniProt P00533)

Structure (SMILES) | number of time points (CAMK2A) | number of time points (CAMK2G) | number of time points (CDK10) | number of time points (CDK2) | number of time points (CDK3) | number of time points (CDK5) | number of time points (CDK6) | number of time points (CHEK2) | number of time points (CSF1R) | number of time points (CSK) | number of time points (CSNK1A1) | number of time points (CSNK1D) | number of time points (DDR1) | number of time points (DYRK1B) | number of time points (DYRK2) | number of time points (EGFR) | number of time points (EGFR_G719S) | number of time points (EGFR_G719S_T790M) | number of time points (EGFR_L718V) | number of time points (EGFR_L858R)
COc1cc(C(=O)N2CCC(N3CCN(C)CC3)CC2)ccc1Nc1ncc2c(n1)N(C)c1ccccc1C(=O)N2C (10 µM) | 0 | 0 | 0 | 0 | 0 | 0 | 0 | 0 | 0 | 0 | 0 | 0 | 0 | 0 | 0 | 0 | 0 | 0 | 0 | 0
COc1cc(N2CCC(N3CCN(C)CC3)CC2)ccc1Nc1nc2c(c(Nc3ccccc3S(=O)(=O)NC(C)C)n1)CCN2 [Conteltinib] (10 µM) | 0 | 0 | 0 | 0 | 0 | 0 | 0 | 0 | 0 | 0 | 0 | 0 | 1 | 0 | 0 | 0 | 0 | 0 | 0 | 0
CC(C)c1cc(/C=C(\C#N)C(N)=O)cc(C(C)C)c1O (10 µM) | 0 | 0 | 0 | 0 | 0 | 0 | 0 | 0 | 0 | 0 | 0 | 0 | 0 | 0 | 0 | 0 | 0 | 0 | 0 | 0
NC(=O)c1ccc(-c2cnn3ccc(NCc4cccnc4)nc23)cc1 (2.5 µM) | 0 | 0 | 0 | 0 | 0 | 0 | 0 | 0 | 0 | 0 | 0 | 0 | 0 | 0 | 0 | 0 | 0 | 0 | 0 | 0
O=c1ccoc2cc(O)ccc12 [7-Hydroxy-4H-chromen-4-one] (10 µM) | 0 | 0 | 0 | 0 | 0 | 0 | 0 | 0 | 0 | 0 | 0 | 0 | 0 | 0 | 0 | 0 | 0 | 0 | 0 | 0
N#Cc1ccc(-c2c(-c3ncn[nH]3)sc(N3CCOCC3)c2C#N)c(F)c1 (10 µM) | 0 | 0 | 0 | 0 | 0 | 0 | 0 | 0 | 0 | 0 | 0 | 0 | 3 | 0 | 4 | 0 | 0 | 0 | 0 | 0
COc1cc(N2CCC(O)CC2)ccc1Nc1cc(Nc2ccccc2S(=O)(=O)C(C)C)c2cc[nH]c2n1 (10 µM) | 0 | 0 | 0 | 0 | 0 | 0 | 0 | 0 | 0 | 0 | 0 | 0 | 0 | 0 | 0 | 0 | 0 | 0 | 0 | 0
Cn1cc(-c2ccc3nnc(C(F)(F)c4ccc5ncccc5c4)n3n2)cn1 (10 µM) | 0 | 0 | 0 | 0 | 0 | 0 | 0 | 0 | 0 | 0 | 0 | 0 | 0 | 0 | 0 | 0 | 0 | 0 | 0 | 0
CN(CC(=O)N(Cc1ccc(C2CCCCC2)cc1)c1ccc(C(=O)O)c(O)c1)S(=O)(=O)c1c(F)c(F)c(F)c(F)c1F (2.5 µM) | 0 | 0 | 0 | 0 | 0 | 0 | 0 | 0 | 0 | 0 | 0 | 0 | 0 | 0 | 0 | 0 | 0 | 0 | 0 | 0
